PubChem BioAssay AID1224831 – NIAID, 2016
Assay: 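Genes that support or restrain LPS-induced TNF-alpha reporter activity in macrophage-like cells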 (follow-up of hits). Cell system: human THP-1 B5 monocytic leukaemia cells carrying a TNF promoter luciferase reporter, made macrophage-like with PMA. Reagent: single siRNA against human genes, 50 nM. Timing: about 68 h of knock-down, then 4 h LPS. Challenge: LPS (Salmonella minnesota, TLR-grade) at 10 ng/ml for 4 h; PMA 5 ng/ml present during knock-down. Detection: 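Firefly to renilla luciferase ratio of a TNF promoter reporter after 4 h LPS, scaled to plate median, turned into robust z-score, averaged over replicates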. Reading the numbers: TNF reporter z-score: higher = stronger LPS-induced TNF reporter signal; z-score, median over gene's siRNAs: higher = stronger TNF reporter signal across the gene's siRNAs. Hit rule: 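Two-sided call: reduced or raised TNF reporter signal counts as active once mean z reaches about -1 or below, or about 1.5 or above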. Calls: active = changed TNF reporter (either direction); inactive = little change.
This is an unselected part of about 3,500 deposited reagents. 731 of all reagents (21%) were called active. 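Active means either lowered or raised reporter signal; the gene-median score did not drive the per-siRNA calls.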 Unmarked entries are inactive. Reagents against one gene are numbered here.

Gene	reagent	TNF reporter z-score, replicate mean	z-score, median over gene's siRNAs
HSFX1 (heat shock transcription factor family, X-linked 1)	1	-0.53	-0.5
HSFX1 (heat shock transcription factor family, X-linked 1)	2	-0.24	-0.5
HSFX1 (heat shock transcription factor family, X-linked 1)	3	-0.62	-0.5
HSFX1 (heat shock transcription factor family, X-linked 1)	4	-0.47	-0.5
HSFX1 (heat shock transcription factor family, X-linked 1)	5	-0.57	-0.5
HSFX1 (heat shock transcription factor family, X-linked 1)	6	2.04 (active)	-0.5
CNTNAP5 (contactin associated protein family member 5)	1	0.56	1.2
CNTNAP5 (contactin associated protein family member 5)	2	0.38	1.2
CNTNAP5 (contactin associated protein family member 5)	3	2.07 (active)	1.2
CNTNAP5 (contactin associated protein family member 5)	4	5.49 (active)	1.2
CNTNAP5 (contactin associated protein family member 5)	5	-0.04	1.2
CNTNAP5 (contactin associated protein family member 5)	6	1.83 (active)	1.2
BTG4 (BTG anti-proliferation factor 4)	1	-1.18 (active)	0.09
BTG4 (BTG anti-proliferation factor 4)	2	0.39	0.09
BTG4 (BTG anti-proliferation factor 4)	3	0.16	0.09
BTG4 (BTG anti-proliferation factor 4)	4	-0.61	0.09
BTG4 (BTG anti-proliferation factor 4)	5	0.22	0.09
BTG4 (BTG anti-proliferation factor 4)	6	0.02	0.09
ZNF85 (zinc finger protein 85)	1	-0.09	-0.135
ZNF85 (zinc finger protein 85)	2	-0.18	-0.135
ZNF85 (zinc finger protein 85)	3	-0.71	-0.135
ZNF85 (zinc finger protein 85)	4	0.02	-0.135
ZNF85 (zinc finger protein 85)	5	1.98 (active)	-0.135
ZNF85 (zinc finger protein 85)	6	-0.38	-0.135
TRIM51G (tripartite motif-containing 51G)	1	0.38	0.53
TRIM51G (tripartite motif-containing 51G)	2	2.43 (active)	0.53
TRIM51G (tripartite motif-containing 51G)	3	-0.3	0.53
TRIM51G (tripartite motif-containing 51G)	4	-0.22	0.53
TRIM51G (tripartite motif-containing 51G)	5	0.68	0.53
TRIM51G (tripartite motif-containing 51G)	6	1.83 (active)	0.53
KRT2 (keratin 2)	1	0.53	0.42
KRT2 (keratin 2)	2	-2.39 (active)	0.42
KRT2 (keratin 2)	3	0.57	0.42
KRT2 (keratin 2)	4	0.31	0.42
KRT2 (keratin 2)	5	1.76 (active)	0.42
KRT2 (keratin 2)	6	-0.65	0.42
SLC25A14	1	2.34 (active)	0.235
SLC25A14	2	-0.99	0.235
SLC25A14	3	0.38	0.235
SLC25A14	4	1.03	0.235
SLC25A14	5	0.09	0.235
SLC25A14	6	-0.05	0.235
ZBTB46 (zinc finger and BTB domain containing 46)	1	-2.45 (active)	-0.755
ZBTB46 (zinc finger and BTB domain containing 46)	2	-0.64	-0.755
ZBTB46 (zinc finger and BTB domain containing 46)	3	-0.67	-0.755
ZBTB46 (zinc finger and BTB domain containing 46)	4	-1.2 (active)	-0.755
ZBTB46 (zinc finger and BTB domain containing 46)	5	1.26	-0.755
ZBTB46 (zinc finger and BTB domain containing 46)	6	-0.84	-0.755
UBE3D (ubiquitin protein ligase E3D)	1	-0.42	-0.235
UBE3D (ubiquitin protein ligase E3D)	2	-0.77	-0.235
UBE3D (ubiquitin protein ligase E3D)	3	-1.53 (active)	-0.235
UBE3D (ubiquitin protein ligase E3D)	4	0.25	-0.235
UBE3D (ubiquitin protein ligase E3D)	5	-0.05	-0.235
UBE3D (ubiquitin protein ligase E3D)	6	0.22	-0.235
RNF152 (ring finger protein 152)	1	-1.68 (active)	0.42
RNF152 (ring finger protein 152)	2	-0.37	0.42
RNF152 (ring finger protein 152)	3	1.29	0.42
RNF152 (ring finger protein 152)	4	0.55	0.42
RNF152 (ring finger protein 152)	5	0.29	0.42
RNF152 (ring finger protein 152)	6	1.08	0.42
